For 25 sequences, binding signal results are on record in paper PMC7862700.

By UniProt entry, the sequences of proteins in these tests, tags left out. Where a name states a change or a piece, a line headed by the entry shows the natural chain unless it says otherwise.
UniProt P32519: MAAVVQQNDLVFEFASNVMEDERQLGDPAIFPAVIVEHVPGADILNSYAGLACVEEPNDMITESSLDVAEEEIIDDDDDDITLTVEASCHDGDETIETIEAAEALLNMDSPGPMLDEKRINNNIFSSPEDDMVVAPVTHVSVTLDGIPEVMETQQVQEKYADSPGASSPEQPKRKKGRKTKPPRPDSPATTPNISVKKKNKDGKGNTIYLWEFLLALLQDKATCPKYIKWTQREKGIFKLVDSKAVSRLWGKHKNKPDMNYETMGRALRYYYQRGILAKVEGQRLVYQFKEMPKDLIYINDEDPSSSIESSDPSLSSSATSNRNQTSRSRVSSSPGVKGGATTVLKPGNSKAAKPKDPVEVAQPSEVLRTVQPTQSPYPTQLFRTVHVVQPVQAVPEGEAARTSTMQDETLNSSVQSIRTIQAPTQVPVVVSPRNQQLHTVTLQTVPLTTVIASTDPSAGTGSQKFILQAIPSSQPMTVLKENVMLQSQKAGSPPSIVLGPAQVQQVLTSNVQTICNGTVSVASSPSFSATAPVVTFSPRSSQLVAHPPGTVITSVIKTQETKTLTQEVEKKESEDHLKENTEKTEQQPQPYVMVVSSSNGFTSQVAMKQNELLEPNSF
UniProt P50549: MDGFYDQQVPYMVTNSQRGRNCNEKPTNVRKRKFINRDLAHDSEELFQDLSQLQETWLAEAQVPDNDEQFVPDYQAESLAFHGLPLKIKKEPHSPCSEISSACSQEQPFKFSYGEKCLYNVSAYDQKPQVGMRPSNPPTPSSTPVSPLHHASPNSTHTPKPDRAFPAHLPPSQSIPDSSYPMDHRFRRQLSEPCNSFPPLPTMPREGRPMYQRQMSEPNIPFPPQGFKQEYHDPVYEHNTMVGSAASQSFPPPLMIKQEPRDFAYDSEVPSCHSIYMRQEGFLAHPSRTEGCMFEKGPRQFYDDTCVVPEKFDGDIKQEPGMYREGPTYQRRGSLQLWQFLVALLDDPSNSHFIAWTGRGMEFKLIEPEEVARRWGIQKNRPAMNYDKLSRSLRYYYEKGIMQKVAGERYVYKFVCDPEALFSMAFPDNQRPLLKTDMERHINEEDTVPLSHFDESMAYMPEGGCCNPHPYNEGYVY

The list shows a part of the results, in another mix than the full data. For some of these results: At the low end of the ranking the order means little. The list shows a part of the results. For some of these results: The source does not settle which construct or isoform was used.

Holding throughout (assay): DAPPL (digital affinity profiling via proximity ligation, sequencing)
Conditions in all cases: 10 mM Tris-HCl pH 7.5, 50 mM NaCl, 1 mM DTT, 4% glycerol, room temperature, 30 min; GST-TFs on glutathione beads, 16-mer random dsDNA library, 0.1% …; high values mean tight binding; double strand, one strand shown; scale: fold enrichment (6-mer frequency, TF over GST control)

One test deals with T1, ERG (UniProt P11308).
T1 sequence: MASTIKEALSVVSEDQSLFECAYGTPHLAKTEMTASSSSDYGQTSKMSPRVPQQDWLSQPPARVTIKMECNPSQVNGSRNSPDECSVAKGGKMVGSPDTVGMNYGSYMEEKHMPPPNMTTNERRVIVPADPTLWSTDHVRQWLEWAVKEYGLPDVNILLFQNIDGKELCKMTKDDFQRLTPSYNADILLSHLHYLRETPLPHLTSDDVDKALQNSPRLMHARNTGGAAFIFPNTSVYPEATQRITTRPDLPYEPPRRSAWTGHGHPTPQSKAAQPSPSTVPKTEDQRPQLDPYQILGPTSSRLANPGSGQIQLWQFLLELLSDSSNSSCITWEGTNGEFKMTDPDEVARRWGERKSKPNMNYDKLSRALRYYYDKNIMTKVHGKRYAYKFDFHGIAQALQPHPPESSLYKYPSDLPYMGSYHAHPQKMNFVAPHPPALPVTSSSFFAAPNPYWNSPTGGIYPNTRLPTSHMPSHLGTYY

The next test addresses ELF1 (UniProt P32519).
The next test addresses T2, ELK4 (UniProt P28324-2).
T2 sequence: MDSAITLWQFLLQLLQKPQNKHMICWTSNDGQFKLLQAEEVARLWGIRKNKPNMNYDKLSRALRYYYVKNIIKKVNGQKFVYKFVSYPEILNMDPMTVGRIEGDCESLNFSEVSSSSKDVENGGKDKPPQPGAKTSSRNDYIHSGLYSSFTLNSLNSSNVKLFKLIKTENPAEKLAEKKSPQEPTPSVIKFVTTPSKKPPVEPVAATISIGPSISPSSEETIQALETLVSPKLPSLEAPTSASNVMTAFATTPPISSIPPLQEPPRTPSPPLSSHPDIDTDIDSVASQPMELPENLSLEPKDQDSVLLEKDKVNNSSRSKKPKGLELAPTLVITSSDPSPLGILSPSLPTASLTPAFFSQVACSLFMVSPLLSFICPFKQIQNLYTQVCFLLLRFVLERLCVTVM

The next test addresses T3, ETV4 (UniProt P43268).
T3 sequence: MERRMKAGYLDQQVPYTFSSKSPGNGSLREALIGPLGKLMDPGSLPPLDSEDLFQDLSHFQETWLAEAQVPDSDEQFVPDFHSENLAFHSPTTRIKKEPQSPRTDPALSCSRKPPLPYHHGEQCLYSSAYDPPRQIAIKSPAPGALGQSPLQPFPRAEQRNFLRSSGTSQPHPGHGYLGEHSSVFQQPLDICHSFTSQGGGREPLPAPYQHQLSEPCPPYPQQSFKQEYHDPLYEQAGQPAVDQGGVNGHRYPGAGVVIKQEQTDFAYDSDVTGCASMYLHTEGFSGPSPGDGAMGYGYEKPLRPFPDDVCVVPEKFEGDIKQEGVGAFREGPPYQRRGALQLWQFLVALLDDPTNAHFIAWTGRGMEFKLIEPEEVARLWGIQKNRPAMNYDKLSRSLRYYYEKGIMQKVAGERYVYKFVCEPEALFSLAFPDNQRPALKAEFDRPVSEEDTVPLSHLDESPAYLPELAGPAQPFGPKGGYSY

A further test has as its target ETV1 (UniProt P50549).
Another test deals with T4, ERF (UniProt P50548).
T4 sequence: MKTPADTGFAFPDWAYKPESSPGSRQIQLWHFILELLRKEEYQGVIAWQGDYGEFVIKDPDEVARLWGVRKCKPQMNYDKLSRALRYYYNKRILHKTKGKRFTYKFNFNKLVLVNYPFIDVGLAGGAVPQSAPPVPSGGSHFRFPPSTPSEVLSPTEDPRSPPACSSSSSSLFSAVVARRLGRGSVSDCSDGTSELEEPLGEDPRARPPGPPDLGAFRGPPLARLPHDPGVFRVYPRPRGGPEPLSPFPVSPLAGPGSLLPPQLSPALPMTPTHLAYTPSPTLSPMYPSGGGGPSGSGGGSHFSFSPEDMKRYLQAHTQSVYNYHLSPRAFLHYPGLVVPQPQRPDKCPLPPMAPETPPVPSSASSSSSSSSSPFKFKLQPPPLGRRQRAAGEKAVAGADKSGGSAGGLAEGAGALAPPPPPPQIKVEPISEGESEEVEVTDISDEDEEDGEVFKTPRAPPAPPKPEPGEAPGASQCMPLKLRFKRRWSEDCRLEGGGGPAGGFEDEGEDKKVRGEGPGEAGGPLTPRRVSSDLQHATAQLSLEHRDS

Consider GTTGGC, for which the binding signal was 0.87 with ERG; 0.947 with ELF1; 0.943 in the test with ELK4; 0.874 with ETV4; 0.848 with ETV1; 0.84 with ERF.
Turning to TGCGGT, the binding signal in the test with ERG is 0.927; in the test with ELF1, 0.911; with ELK4, 0.893; with ETV4 it was 1.04; in the test with ETV1 it was 0.907; in the test with ERF it was 0.875.
As for GAATCA, the binding signal with ERG worked out at 0.955; in the test with ELF1, 0.927; in the test with ELK4 it was 0.955; with ETV4, 0.938; in the test with ETV1, 0.878; in the test with ERF, 0.974.
For GGCATA, the binding signal with ERG was 0.908; in the test with ELF1, 0.832; with ELK4, 0.923; with ETV4, 0.905; with ETV1, 0.887; with ERF, 0.933.
In the case of ACGCGA, the binding signal came to 0.853 in the test with ERG; 0.904 in the test with ELF1; 0.913 with ELK4; 0.866 in the test with ETV4; 0.869 in the test with ETV1; 0.898 with ERF.
Consider ATTCGG, for which the binding signal with ERG came to 0.898; with ELF1, 0.961; with ELK4, 0.92; in the test with ETV4 it was 0.847; in the test with ETV1, 0.905; in the test with ERF it was 0.962.
For the sequence GAGCTT, the binding signal turned out to be 0.976 with ERG; 0.957 with ELF1; 0.78 with ELK4; 1.02 in the test with ETV4; 0.923 with ETV1; 0.98 with ERF.
In the case of TCGAGT, the binding signal worked out at 0.864 with ERG; 0.954 with ELF1; 0.934 in the test with ELK4; 1.05 with ETV4; 0.92 with ETV1; 0.948 with ERF.
As to AGTTTT, the binding signal with ERG was found to be 0.94; with ELF1, 0.963; in the test with ELK4 it was 0.958; with ETV4, 0.971; with ETV1, 0.963.
Consider CAATGG, for which the binding signal with ERG is 0.971; with ELF1, 1.03; with ELK4 it was 0.987; with ETV4, 1.07; with ETV1, 1.1.
As to CTACAC, the binding signal in the test with ERG came to 1.34; with ELF1 it was 1.33; with ELK4, 1.23; with ETV4, 1.35; in the test with ETV1, 1.28.
CGAAGA: the binding signal with ERG came out at 0.785; with ELF1, 0.762; with ELK4, 0.754; with ETV4 it was 0.793; with ETV1, 0.821; in the test with ERF, 0.82.
For TGCGTC, the binding signal with ERG amounted to 0.953; in the test with ELF1, 0.926; in the test with ELK4, 0.864; with ETV4, 0.954; with ETV1, 0.974; with ERF it was 0.916.
In the case of CGACAG, the binding signal was 0.974 in the test with ERG; 0.991 with ELF1; 1.03 in the test with ELK4; 1.01 in the test with ETV4; 0.945 with ETV1.
Take GGCGTT: the binding signal in the test with ERG came out at 0.955; with ELF1, 0.91; with ELK4, 0.896; with ETV4 it was 0.923; with ETV1 it was 0.992.
With TCGAAA, the binding signal came to 0.957 with ERG; 0.937 with ELF1; 0.987 in the test with ELK4; 0.942 with ETV4; 0.992 with ETV1.
Taken in the same sequence, the figures for TAGGGT were 1.03, 1.16, 1.22, 1.07 and 1.01.
GAATGG: the binding signal with ERG was determined as 0.966; in the test with ELF1, 0.986; with ELK4, 0.991; in the test with ETV4, 1; with ETV1, 0.918; with ERF it was 0.909.
For the sequence TTAAGA, the binding signal stood at 0.975 with ERG; 1.05 with ELF1; 0.981 with ELK4; 0.973 in the test with ETV4; 0.97 with ETV1.
Regarding CCGTTA, the binding signal in the test with ERG came to 0.951; with ELF1, 0.902; with ELK4 it was 0.91; with ETV4, 0.954; in the test with ETV1, 0.867; with ERF, 0.975.
Consider ACGAAG, for which the binding signal is 0.976 with ERG; 0.908 with ELF1; 0.964 with ELK4; 0.905 with ETV4; 0.925 with ETV1.
On to CTGTGG, for which the binding signal with ERG is 0.968; in the test with ELF1, 0.894; with ELK4, 0.987; in the test with ETV4 it was 0.941; in the test with ETV1, 0.844; with ERF it was 0.95.
On to GGATCA, for which the binding signal with ERG turned out to be 0.835; with ELF1 it was 0.779; with ELK4 it was 0.846; in the test with ETV4, 0.785; with ETV1, 0.829; with ERF, 0.823.
Regarding TACGGG, the binding signal was 0.923 with ERG; 0.952 with ELF1; 0.897 with ELK4; 0.997 with ETV4; 0.994 with ETV1.
Take GTACAG: the binding signal with ERG stood at 0.95; with ELF1 it was 0.954; with ELK4, 0.969; in the test with ETV4, 0.929; with ETV1, 0.937.
